Measurements reported in publication doi:10.1101/2025.03.11.641985.

By UniProt entry, the sequences of proteins in these tests, tags left out.
UniProt P17839: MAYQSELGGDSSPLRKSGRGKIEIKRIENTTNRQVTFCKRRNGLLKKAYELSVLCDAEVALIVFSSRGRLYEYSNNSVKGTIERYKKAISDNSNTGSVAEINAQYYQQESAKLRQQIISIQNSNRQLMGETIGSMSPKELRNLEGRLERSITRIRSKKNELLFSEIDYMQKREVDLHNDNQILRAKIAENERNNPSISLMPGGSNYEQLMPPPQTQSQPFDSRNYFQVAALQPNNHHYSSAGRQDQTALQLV
UniProt Q9C7G4: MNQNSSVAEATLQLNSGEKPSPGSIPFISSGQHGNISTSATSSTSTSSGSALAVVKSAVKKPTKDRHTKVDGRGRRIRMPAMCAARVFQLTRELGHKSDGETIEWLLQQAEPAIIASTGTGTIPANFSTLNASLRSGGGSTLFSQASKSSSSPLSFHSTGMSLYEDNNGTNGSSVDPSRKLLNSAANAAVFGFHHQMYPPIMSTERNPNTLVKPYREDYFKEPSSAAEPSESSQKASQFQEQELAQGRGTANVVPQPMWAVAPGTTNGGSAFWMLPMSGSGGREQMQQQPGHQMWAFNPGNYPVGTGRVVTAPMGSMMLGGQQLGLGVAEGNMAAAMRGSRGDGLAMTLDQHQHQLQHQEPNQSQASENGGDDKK

Target: T1, SPL/NZZ-GFP (SPOROCYTELESS/NOZZLE fused to GFP, from pSPL/NZZ::SPL/NZZ:GFP) (Arabidopsis thaliana) (UniProt O81836)
T1 sequence: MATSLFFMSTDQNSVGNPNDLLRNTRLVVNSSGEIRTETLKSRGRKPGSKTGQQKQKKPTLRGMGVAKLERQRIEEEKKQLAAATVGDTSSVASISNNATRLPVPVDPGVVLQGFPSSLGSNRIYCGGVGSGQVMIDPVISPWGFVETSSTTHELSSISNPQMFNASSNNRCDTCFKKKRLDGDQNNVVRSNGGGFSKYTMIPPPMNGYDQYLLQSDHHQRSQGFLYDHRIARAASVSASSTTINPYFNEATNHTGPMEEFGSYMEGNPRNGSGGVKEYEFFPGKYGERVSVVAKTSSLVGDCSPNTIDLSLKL
Assay: affinity purification with mass spectrometry

Row | binding | Substance
1 | binds | AGAMOUS (AG), endogenous (from UniProt P17839 1-252)
2 | binds | TCP22, endogenous (from UniProt Q9C7G4 1-375)
3 | binds | …2 (SEP2), endogenous (from UniProt P29384 1-250)

The next lines start with the substance.

Row | Substance | binding
4 | …1 (SEP1), endogenous (from UniProt P29382 1-251) | binds
5 | …3 (SEP3), endogenous (from UniProt O22456 1-251) | binds
6 | …OOF2 (SHP2), endogenous (from UniProt P29385 1-246) | binds

These are yes or no findings as the source states them, for the method shown. Binding seen in cells or lysates may run through a third protein. Here binding means that the protein was enriched with, or labelled near, the bait; the list need not be complete. Tags and fused reporters may be left off the sequences shown.
